No constants are given. Whether binding was seen depends on the method and setting. In cells and extracts the contact can be indirect. Binding can be weak; no strength is given. Sequences can lack the tags named with a protein.

This assay deals with T1, 3XFLAG-Foxh1 (Xenopus (said of the protein in general; species of the cDNA not stated)) (UniProt P70056).
T1 sequence: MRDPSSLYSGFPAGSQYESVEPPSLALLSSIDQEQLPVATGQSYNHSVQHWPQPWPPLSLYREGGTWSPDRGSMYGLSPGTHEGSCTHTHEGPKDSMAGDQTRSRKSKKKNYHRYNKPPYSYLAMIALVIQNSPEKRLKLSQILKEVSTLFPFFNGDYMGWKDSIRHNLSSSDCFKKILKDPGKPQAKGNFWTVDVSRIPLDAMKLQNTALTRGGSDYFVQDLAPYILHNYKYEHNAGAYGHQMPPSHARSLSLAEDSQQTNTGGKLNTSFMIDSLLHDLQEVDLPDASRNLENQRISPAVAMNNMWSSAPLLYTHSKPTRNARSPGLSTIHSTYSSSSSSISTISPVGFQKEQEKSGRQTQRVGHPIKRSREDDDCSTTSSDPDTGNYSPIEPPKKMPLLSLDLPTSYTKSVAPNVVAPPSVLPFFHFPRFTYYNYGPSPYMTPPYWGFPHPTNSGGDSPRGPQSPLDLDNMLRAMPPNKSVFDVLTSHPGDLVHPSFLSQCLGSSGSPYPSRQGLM
The assay is described as follows: co-IP; HEK293T cells co-transfected with HA-Ezh2 and 3XFLAG-Foxh1, -Foxi2 or -Sox3 for 24 hours; immunoprecipitation with Flag-M2 beads; western blot with anti-FLAG and anti-HA. For orientation: In western blotting, separated proteins are transferred to a membrane and probed.

With HA-Ezh2, the binding entry was “binds”.

(Values after paper PMC12485744.)
